Publication PMC6646387, “Identification of intracellular cavin target proteins reveals cavin-PP1alpha interactions regulate apoptosis” (Nature Communications, 2019)

The chains behind the UniProt entries cited, without tags or fusion partners.
UniProt Q13148: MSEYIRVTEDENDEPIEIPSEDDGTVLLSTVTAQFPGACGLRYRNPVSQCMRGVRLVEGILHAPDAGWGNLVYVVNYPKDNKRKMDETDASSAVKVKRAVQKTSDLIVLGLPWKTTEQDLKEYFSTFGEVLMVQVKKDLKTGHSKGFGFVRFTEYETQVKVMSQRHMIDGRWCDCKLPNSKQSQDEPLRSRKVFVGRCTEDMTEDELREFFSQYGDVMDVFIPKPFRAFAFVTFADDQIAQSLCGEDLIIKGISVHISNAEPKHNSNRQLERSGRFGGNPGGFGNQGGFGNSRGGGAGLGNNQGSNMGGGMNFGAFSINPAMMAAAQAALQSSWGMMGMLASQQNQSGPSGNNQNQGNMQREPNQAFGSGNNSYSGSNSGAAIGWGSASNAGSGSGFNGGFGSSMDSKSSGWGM
UniProt P08758: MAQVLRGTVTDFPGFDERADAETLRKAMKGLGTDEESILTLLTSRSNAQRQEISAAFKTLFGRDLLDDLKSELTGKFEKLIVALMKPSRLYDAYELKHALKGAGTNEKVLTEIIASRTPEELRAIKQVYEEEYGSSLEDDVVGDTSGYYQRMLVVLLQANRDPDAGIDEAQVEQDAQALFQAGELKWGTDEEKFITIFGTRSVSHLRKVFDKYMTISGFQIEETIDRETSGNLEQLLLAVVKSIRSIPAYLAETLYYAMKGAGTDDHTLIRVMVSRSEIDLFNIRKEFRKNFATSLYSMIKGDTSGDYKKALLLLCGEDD
UniProt P62136: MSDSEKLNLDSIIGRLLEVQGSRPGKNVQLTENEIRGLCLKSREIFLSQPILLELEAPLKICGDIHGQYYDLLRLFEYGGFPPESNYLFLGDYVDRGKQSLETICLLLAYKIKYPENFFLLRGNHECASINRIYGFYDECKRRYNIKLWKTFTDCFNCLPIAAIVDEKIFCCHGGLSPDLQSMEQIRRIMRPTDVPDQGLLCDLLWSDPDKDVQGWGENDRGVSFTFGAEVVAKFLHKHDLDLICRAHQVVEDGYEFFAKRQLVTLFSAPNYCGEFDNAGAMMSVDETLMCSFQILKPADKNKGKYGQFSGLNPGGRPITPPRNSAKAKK
UniProt Q92769: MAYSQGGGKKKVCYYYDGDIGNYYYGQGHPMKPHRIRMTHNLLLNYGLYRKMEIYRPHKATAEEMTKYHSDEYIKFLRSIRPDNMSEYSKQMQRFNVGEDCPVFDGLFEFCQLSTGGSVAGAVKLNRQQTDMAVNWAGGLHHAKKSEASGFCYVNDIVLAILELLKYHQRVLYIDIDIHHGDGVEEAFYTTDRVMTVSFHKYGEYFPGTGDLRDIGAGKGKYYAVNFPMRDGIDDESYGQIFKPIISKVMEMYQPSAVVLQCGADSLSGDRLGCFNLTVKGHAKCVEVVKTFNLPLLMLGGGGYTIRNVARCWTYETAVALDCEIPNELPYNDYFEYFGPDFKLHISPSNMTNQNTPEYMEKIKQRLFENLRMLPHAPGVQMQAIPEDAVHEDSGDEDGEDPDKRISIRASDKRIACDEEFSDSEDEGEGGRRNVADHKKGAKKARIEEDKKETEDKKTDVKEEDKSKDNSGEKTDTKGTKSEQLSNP
UniProt P14618: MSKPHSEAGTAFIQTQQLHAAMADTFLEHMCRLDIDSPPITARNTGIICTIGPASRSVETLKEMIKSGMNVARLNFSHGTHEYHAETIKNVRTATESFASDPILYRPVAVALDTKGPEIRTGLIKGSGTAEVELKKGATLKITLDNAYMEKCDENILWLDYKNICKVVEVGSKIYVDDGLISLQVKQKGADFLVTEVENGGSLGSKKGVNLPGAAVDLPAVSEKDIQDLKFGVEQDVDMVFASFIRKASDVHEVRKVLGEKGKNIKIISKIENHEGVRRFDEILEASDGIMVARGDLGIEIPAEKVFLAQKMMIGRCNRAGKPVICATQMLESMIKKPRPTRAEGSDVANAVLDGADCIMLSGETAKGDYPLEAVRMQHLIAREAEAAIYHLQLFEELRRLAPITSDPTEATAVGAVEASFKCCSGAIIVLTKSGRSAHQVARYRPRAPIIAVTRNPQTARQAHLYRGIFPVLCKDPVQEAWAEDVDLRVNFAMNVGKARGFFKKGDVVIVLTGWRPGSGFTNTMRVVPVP

Tests used:
[1] = target: T1, Cavin3-GFP (mouse) (UniProt Q91VJ2); assay: affinity purification with mass spectrometry; GFP Trap pulldown of Cavin3-GFP from A431 lysate (RIPA buffer), mass spectrometry; proteins found with GFP alone removed
T1 sequence: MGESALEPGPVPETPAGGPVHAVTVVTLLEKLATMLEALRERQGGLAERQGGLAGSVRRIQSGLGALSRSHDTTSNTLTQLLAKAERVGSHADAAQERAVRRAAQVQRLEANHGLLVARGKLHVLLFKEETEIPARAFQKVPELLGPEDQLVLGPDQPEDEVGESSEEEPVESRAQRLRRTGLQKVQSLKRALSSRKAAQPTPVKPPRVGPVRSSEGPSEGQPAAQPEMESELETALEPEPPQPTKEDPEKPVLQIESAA

[2] = target: T1, Cavin3-GFP (mouse); assay: affinity purification with mass spectrometry; GFP Trap pulldown of Cavin3-GFP from MCF-7 lysate (RIPA buffer), mass spectrometry; proteins found with GFP alone removed
[3] = target: T2, Cavin3-BirA (mouse) (UniProt Q91VJ2); assay: proximity labelling; BioID: Cavin3-BirA expressed in MCF-7 cells, 50 μM biotin 18 h, RIPA lysis, streptavidin agarose, mass spectrometry; proteins found with BirA alone removed, two or more peptides
T2 sequence: T1 sequence

binding [1]: binds
binding [2]: binds
Molecule: TAR DNA binding protein (TARDBP) 43 (from UniProt Q13148 1-414)

binding [1]: binds
binding [2]: binds
Molecule: annexin A5 (ANXA5) (from UniProt P08758 1-320)

binding [1]: binds
binding [2]: binds
binding [3]: binds
Molecule: endogenous PP1α (from UniProt P62136 1-330) (enzyme)

binding [1]: binds
binding [2]: binds
Molecule: histone deacetylase 2 (HDAC2) (from UniProt Q92769 1-488) (enzyme)

binding [3]: binds
Molecule: pyruvate kinase M (PKM) (from UniProt P14618 1-531) (enzyme)

binding [3]: binds
B1: fructose-bisphosphate aldolase (FBA) A (enzyme, UniProt P04075 1-364)
chain: MPYQYPALTPEQKKELSDIAHRIVAPGKGILAADESTGSIAKRLQSIGTENTEENRRFYRQLLLTADDRVNPCIGGVILFHETLYQKADDGRPFPQVIKSKGGVVGIKVDKGVVPLAGTNGETTTQGLDGLSERCAQYKKDGADFAKWRCVLKIGEHTPSALAIMENANVLARYASICQQNGIVPIVEPEILPDGDHDLKRCQYVTEKVLAAVYKALSDHHIYLEGTLLKPNMVTPGHACTQKFSHEEIAMATVTALRRTVPPAVTGITFLSGGQSEEEASINLNAINKCPLLKPWALTFSYGRALQASALKAWGGKKENLKAAQEEYVKRALANSLACQGKYTPSGQAGAAASESLFVSNHAY

binding [3]: binds
B2: peroxiredoxin-6 (PRDX6) (enzyme, UniProt P30041 1-224)
chain: MPGGLLLGDVAPNFEANTTVGRIRFHDFLGDSWGILFSHPRDFTPVCTTELGRAAKLAPEFAKRNVKLIALSIDSVEDHLAWSKDINAYNCEEPTEKLPFPIIDDRNRELAILLGMLDPAEKDEKGMPVTARVVFVFGPDKKLKLSILYPATTGRNFDEILRVVISLQLTAEKRVATPVDWKDGDSVMVLPTIPEEEAKKLFPKGVFTKELPSGKKYLRYTPQP

binding [1]: binds
binding [2]: binds
B3: gamma-glutamylcyclotransferase (GGCT) (enzyme, UniProt O75223 1-188)
chain: MANSGCKDVTGPDEESFLYFAYGSNLLTERIHLRNPSAAFFCVARLQDFKLDFGNSQGKTSQTWHGGIATIFQSPGDEVWGVVWKMNKSNLNSLDEQEGVKSGMYVVIEVKVATQEGKEITCRSYLMTNYESAPPSPQYKKIICMGAKENGLPLEYQEKLKAIEPNDYTGKVSEEIEDIIKKGETQTL

Results are given in words; binding and its absence hold for the method and conditions named. Binding seen in cells or lysates may run through a third protein. These calls come from enrichment with a bait or labelling near it, and not all partners need be listed. For some assays here: Where a sequence is shown, tags or fusion partners need not be part of it. Each block holds one molecule with its values, some of them ahead of it.
